Data as given in PubChem BioAssay AID652259 (Drosophila RNAi Screening Center, 2013).

- Screen: 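Knock-downs that push a Wingless-driven reporter up or down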 (primary screen)
- System: Drosophila clone 8 imaginal disc epithelial cells
- Reagents: long dsRNA against Drosophila genes
- Conditions: pathway stimulated by co-transfected Wingless expression plasmid
- Detection: 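Firefly luciferase from a tcf-site Wingless reporter, measured alongside co-transfected Renilla luciferase that tracks transfection; pathway stimulated by a Wingless plasmid; the firefly-to-Renilla ratio is not deposited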
- Scale: firefly reporter light: higher = more Wg reporter light, before normalisation; Renilla control light: higher = more transfected or surviving cells
- Rule for the call: 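Strong candidates differ from their plate mean by at least two out of four per-plate statistical tests; weak candidates meet just one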
- Meaning of the calls: active = candidate regulator (raises or lowers reporter); inactive = not a candidate
In all, the deposit lists about 22,000 reagents; below is a random part of those with a known target gene and a result. Of all reagents, 233 (1.1%) are marked active. 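Light values are raw, unnormalised plate reads; the ratio scores behind the reporter calls were not deposited.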 A plus sign joins genes that one reagent is predicted to hit. Not given: the amount of reagent, the time to read-out, the dose of the treatment.

The opening 5 records as a preview:
reporter change call, replicate 1 | firefly reporter light, replicate 1 | firefly reporter light, replicate 2 | Renilla control light, replicate 1 | Renilla control light, replicate 2 | Call | gene | amplicon
– | 8.16e5 | 8.40e5 | 3.77e5 | 3.58e5 | inactive | NLaz (Neural Lazarillo) | DRSC21521
– | 10587 | – | 4155 | – | inactive | CG12861 | DRSC06201
– | 5.55e5 | 6.00e5 | 2.11e5 | 2.27e5 | inactive | CG12861 | DRSC21960
– | 18116 | – | 8634 | – | inactive | Uch-L5R (Uch-L5-related) | DRSC19825
– | 21719 | – | 9456 | – | inactive | CG3032 | DRSC18266

The list itself, from the first entry:
reporter change call, replicate 1 | firefly reporter light, replicate 1 | firefly reporter light, replicate 2 | Renilla control light, replicate 1 | Renilla control light, replicate 2 | Call | gene | amplicon
– | 8.16e5 | 8.40e5 | 3.77e5 | 3.58e5 | inactive | NLaz (Neural Lazarillo) | DRSC21521
– | 10587 | – | 4155 | – | inactive | CG12861 | DRSC06201
– | 5.55e5 | 6.00e5 | 2.11e5 | 2.27e5 | inactive | CG12861 | DRSC21960
– | 18116 | – | 8634 | – | inactive | Uch-L5R (Uch-L5-related) | DRSC19825
– | 21719 | – | 9456 | – | inactive | CG3032 | DRSC18266
– | 2432 | 9924 | 967 | 2928 | inactive | CG16721 | DRSC18113
– | 13765 | – | 3031 | – | inactive | CG11626 | DRSC14336
– | 9360 | – | 3066 | – | inactive | dbr (debra) | DRSC00274
– | 19338 | – | 4730 | – | inactive | Rbf2 (Retinoblastoma-family protein 2) | DRSC16816
– | 2016 | 5831 | 1248 | 3417 | inactive | CG5112 | DRSC15718
– | 16377 | – | 6540 | – | inactive | CG14659 | DRSC12245
– | 13880 | – | 3389 | – | inactive | CG3223 | DRSC15468
– | 3261 | 8648 | 1572 | 4069 | inactive | CG18563 | DRSC02676
– | 2461 | 4026 | 848 | 1595 | inactive | CG15269 | DRSC01942
– | 10352 | – | 2685 | – | inactive | GILT1 (Gamma-interferon-inducible lysosomal thiol reductase 1) | DRSC16565
– | 4619 | – | 1175 | – | inactive | VhaAC45RP (VhaAC45-related protein) | DRSC15423
– | 5632 | – | 3418 | – | inactive | CG18135 | DRSC10295
– | 5216 | – | 2528 | – | inactive | Hml (Hemolectin) | DRSC11183
– | 5243 | – | 2009 | – | inactive | Sox15 (Sox box protein 15) | DRSC07555
– | 2551 | 7801 | 877 | 2870 | inactive | fs(1)M3 (female sterile (1) M3) | DRSC18381
– | 16057 | – | 7015 | – | inactive | Pa1 (PTIP associated 1) | DRSC19422
– | 15159 | – | 4448 | – | inactive | Fsn (F-box synaptic protein) | DRSC06875
– | 35862 | – | 6649 | – | inactive | CG17298 | DRSC15221
– | 4264 | – | 1408 | – | inactive | CG15706 | DRSC06577
– | 6973 | – | 592 | – | inactive | cg (combgap) | DRSC07650
– | 4588 | – | 1875 | – | inactive | Unr (Upstream of N-ras) | DRSC10761
– | 7.97e5 | 8.57e5 | 4.35e5 | 1.50e5 | inactive | Unr (Upstream of N-ras) | DRSC22959
– | 5837 | – | 969 | – | inactive | mRpS29 (mitochondrial ribosomal protein S29) | DRSC04398
– | 3.67e5 | 4.18e5 | 1.45e5 | 1.60e5 | inactive | Ir52c (Ionotropic receptor 52c) | DRSC21801
– | 12141 | – | 3709 | – | inactive | CG1603 | DRSC06602
– | 3419 | 8102 | 923 | 2105 | inactive | Ald1 (Aldolase 1) | DRSC14109
– | 6384 | – | 2962 | – | inactive | nompA (no mechanoreceptor potential A) | DRSC06329
– | 9618 | – | 6087 | – | inactive | CG6707 | DRSC10697
– | 2339 | 4540 | 813 | 1737 | inactive | CG6330 | DRSC16022
– | 18224 | – | 10305 | – | inactive | y (yellow) | DRSC18853
– | 3196 | 4772 | 1020 | 2160 | inactive | CG17118 | DRSC02579
– | 5976 | – | 2776 | – | inactive | CG13700 | DRSC10049
– | 12496 | – | 3408 | – | inactive | fat-spondin | DRSC07617
Wg reporter activity raised | 4952 | 12594 | 724 | 2786 | inactive | MED20 (Mediator complex subunit 20) | DRSC03463
– | 4229 | 8864 | 1424 | 4161 | inactive | CG31952 | DRSC00428
– | 5.28e5 | 5.52e5 | 1.57e5 | 1.73e5 | inactive | CG31952 | DRSC21997
– | 2482 | 4864 | 748 | 3085 | inactive | MED16 (Mediator complex subunit 16) | DRSC04506
– | 26643 | – | 14352 | – | inactive | mab-21 | DRSC18791
– | 3410 | – | 1067 | – | inactive | Atg1 (Autophagy-related 1) | DRSC09809
– | 8760 | – | 3276 | – | inactive | Atg1 (Autophagy-related 1) | DRSC09810
– | 9441 | – | 3760 | – | inactive | Naglu (N-acetyl-alpha-glucosaminidase) | DRSC02267
– | 3724 | 10635 | 1292 | 2032 | inactive | fs(1)h (female sterile (1) homeotic) | DRSC18778
– | 18240 | – | 5089 | – | inactive | CngB (Cyclic nucleotide-gated ion channel subunit B) | DRSC04297
– | 4129 | 7196 | 1296 | 2396 | inactive | CG6769 | DRSC20006
– | 34412 | – | 7815 | – | inactive | CG5376 | DRSC15782
– | 18369 | – | 4550 | – | inactive | CG14326 | DRSC14805
– | 2951 | 5440 | 1164 | 2199 | inactive | RpS27A (Ribosomal protein S27A) | DRSC03421
– | 6707 | – | 2088 | – | inactive | Pal1 (Peptidyl-alpha-hydroxyglycine-alpha-amidating lyase 1) | DRSC06106
– | 5200 | – | 1674 | – | inactive | CG18476 | DRSC15281
– | 27556 | – | 23840 | – | inactive | CR18275 (pseudo) | DRSC18151
– | 6080 | – | 2516 | – | inactive | sha (shavenoid) | DRSC06331
– | 9280 | – | 2341 | – | inactive | CG32462 + asRNA:CR43426 | DRSC11851
– | 6122 | – | 2539 | – | inactive | CG8850 | DRSC07287
– | 5060 | – | 1681 | – | inactive | osk (oskar) | DRSC17023
– | 2717 | 4653 | 1168 | 1676 | inactive | PQBP1 (Poly-glutamine tract binding protein 1) | DRSC14393
– | 5066 | 7857 | 1776 | 3157 | inactive | Cp110 (Centriolar coiled coil protein 110kDa) | DRSC20630
– | 4.22e5 | 4.28e5 | 2.22e5 | 1.78e5 | inactive | Cp110 (Centriolar coiled coil protein 110kDa) | DRSC21716
– | 1610 | 9808 | 716 | 2041 | inactive | Grip91 (Gamma-tubulin ring protein 91) | DRSC20249
– | 1265 | 14452 | 1017 | 4077 | inactive | CG15213 | DRSC10213
– | 1255 | 6480 | 1526 | 3300 | inactive | hoka | DRSC08313
– | 4151 | – | 1686 | – | inactive | ScsbetaA (Succinyl-coenzyme A synthetase beta subunit, ADP-forming) | DRSC14446
– | 2469 | 11221 | 592 | 3654 | inactive | xit (xiantuan) | DRSC18364
– | 2264 | 7530 | 741 | 2807 | inactive | comr (cookie monster) | DRSC04138
– | 11880 | – | 4653 | – | inactive | CG8157 | DRSC07085
– | 9.47e5 | 8.39e5 | 4.65e5 | 4.15e5 | inactive | CG8157 | DRSC21595
– | 1989 | 7680 | 1256 | 2187 | inactive | SPE (Spatzle-Processing Enzyme) | DRSC15135
– | 17316 | – | 12566 | – | inactive | CR18275 + CG13373 | DRSC17900
– | 2755 | 8240 | 1340 | 1228 | inactive | PH4alphaEFB (prolyl-4-hydroxylase-alpha EFB) | DRSC14473
– | 4550 | – | 1724 | – | inactive | PH4alphaEFB (prolyl-4-hydroxylase-alpha EFB) | DRSC14950
